Measured values from patent US6069167A, “Use of antioxidant agents to treat cholestatic liver disease” (priority 1997, dated 2000).

Legend:
[1] = system: hepatic reduced ubiquinol-9; test: Hepatic reduced ubiquinol-9 by HPLC with electrochemical detection; format: in vivo, male Sprague-Dawley rats; details: in relation to TCDC or vitamin E treatment
[2] = format: in vivo, male Sprague-Dawley rats; details: Control/TCDC, n = 13
Procedure: Rats were divided into two treatment groups. One group was pretreated with parenteral Vitamin E (all-rac-alpha tocopherol, […], Hoffmann-LaRoche,Nutley, N.J.). The other group was not pretreated. These rats then received either vehicle or TCDC (10 μmol/[…]) by tail vein injection (as described in Example 1). […] All i.p. injections were administered under light methoxyflurane anesthesia. Following the vitamin E or saline injections, rats were randomly assigned to receive a tail vein bolus injection of either TCDC or vehicle. Rats were sacrificed four hours later and serum was analyzed for AST, ALT, total bilirubin and alkaline phosphatase. […] The serum alpha tocopherol:total lipids ratio (mg/gm) was calculated as an additional index of vitamin E status^41. The liver was rapidly removed at sacrifice, the hepatic mitochondria were isolated as set forth above and analyzed for lipid-conjugated dienes as described above. A specimen of liver was also immediately frozen, protected from light and stored at -70° C. and subsequently analyzed for alpha tocopherol and reduced ubiquinol-9 by HPLC with electrochemical detection^42. The results were expressed as nmol alpha tocopherol or nmol reduced ubiquinol-9 per gram wet weight of liver.

Structure (SMILES)	Hepatic ubiquinol-9 concentrations, change [1]	Serum alpha tocopherol [2] [µg/mL]	Serum alpha tocopherol/total lipids [2] [mg/gm]
Cc1c(C)c2c(c(C)c1O)CCC(C)(CCCC(C)CCCC(C)CCCC(C)C)O2 (racemic) [Vitamin E, all-rac-alpha tocopherol]	No changes		
C[C@H](CCC(=O)NCCS(=O)(=O)O)[C@H]1CC[C@H]2[C@@H]3[C@H](O)C[C@@H]4C[C@H](O)CC[C@]4(C)[C@H]3CC[C@]12C [TCDC, taurochenodeoxycholic acid]	No changes	5.5 ± 0.3	1.47 ± 0.13
